# The list is a part of this screen's results and no random one: it gathers tests that were run many times, whatever their T/C, doses with no T/C, and many T/C values between a quarter and a half above the control. Other doses and runs of a compound stand elsewhere. T/C: endpoint of the treated group in % of that of the vehicle group. Some doses have a count of surviving animals in place of a T/C: the source files T/C as zero there, which appears to mark a toxic dose or a test without result, not a measured value. Some doses without a T/C left all or most animals alive at the check, yet need not have been tolerated: the source hardly ever lists a survival T/C far under the control, and the zero likely stands for such cases as well. Survivors were counted at the toxicity check, usually on the fifth day, unless a day is given; later deaths do not show. Schedule codes are those of the source, taken here to give the interval after Q, in days (D) or hours (H), and the number of doses after X. Where survival is the endpoint, the PubChem record calls one and a half times the control and up active, and a quarter to a half above the control has no call in these data; cut-offs in other NCI protocols can differ. Some doses were run more than once; the values are given in rising order. Some T/C values carry the count of animals alive at the toxicity check (mostly the fifth day); where none is given, no animal had died by that day.
# Tested on: CD2F1 mice, L1210 leukemia ip, survival T/C
# Assay: NCI In Vivo Anticancer Drug Screen. Data for tumor model L1210 Leukemia (intraperitoneal) in CD2F1 (CDF1) mice
# Conditions: higher T/C = longer survival
# Procedure, shortened: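 Read-out first: treated-group measurement over vehicle-control measurement, expressed as a ratio. Animals bore a transplanted tumor line and were dosed with compound or vehicle.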
# [1] = T/C endpoint: mean survival time, dose: 400.0 mg/kg/injection, schedule: Q01DX009 (ip), vehicle: saline with Tween-80
# [2] = T/C endpoint: mean survival time, dose: 200.0 mg/kg/injection, schedule: Q01DX001 (ip), vehicle: saline with Tween-80
smiles,measurement,setting,value
CN(C)CCCOc1nc2c(c(=O)n(C)c(=O)n2C)n1C (tested in a mixture with another compound),T/C,"T/C endpoint: median survival time, dose: 25.0 mg/kg/injection, schedule: Q01DX009 (ip), vehicle: Klucel (hydroxypropylcellulose) (HPC)",137 and 139 % of control
COc1c2c(c(OC)c3c1C(=O)c1ccccc1C3=O)CC=CC2,survivor count,"T/C endpoint: mean survival time, dose: 150.0 mg/kg/injection, schedule: Q01DX009 (ip), vehicle: other",6 of 6
CCCCCCNc1nc(NCCCCCC)c2[nH]c(NCCCCCC)nc2n1,survivor count,"T/C endpoint: median survival time, dose: 400.0 mg/kg/injection, schedule: Q01DX009 (ip), vehicle: saline with Tween-80",0 of 6
COc1ccc(OC)c(NC(=O)NNC(=O)c2ccccc2Cl)c1,survivor count,"T/C endpoint: mean survival time, dose: 100.0 mg/kg/injection, schedule: Q01DX009 (ip), vehicle: saline with Tween-80",6 of 6
same,survivor count,"T/C endpoint: mean survival time, dose: 200.0 mg/kg/injection, schedule: Q01DX009 (ip), vehicle: saline with Tween-80",5 of 6
same,survivor count,[1],6 of 6
O=C1C=CC(=O)N1c1ccc(Cl)cc1,survivor count,"T/C endpoint: mean survival time, dose: 25.0 mg/kg/injection, schedule: Q01DX001 (ip), vehicle: Klucel (hydroxypropylcellulose) (HPC)",8 of 10
same,survivor count,"T/C endpoint: mean survival time, dose: 25.0 mg/kg/injection, schedule: Q04DX003 (ip), vehicle: Klucel (hydroxypropylcellulose) (HPC)",4 of 10
O=C(O)CCc1cc([N+](=O)[O-])c(O)c([N+](=O)[O-])c1,survivor count,[1],1 of 6
OCC1OC(n2cnc3c(=S)nc[nH]c32)C(O)C1O (centres undefined),T/C,"T/C endpoint: mean survival time, dose: 30.0 mg/kg/injection, schedule: Q01DX005 (ip), vehicle: saline",131 % of control
same,T/C,"T/C endpoint: mean survival time, dose: 60.0 mg/kg/injection, schedule: Q01DX005 (ip), vehicle: saline",134 % of control
same,T/C,"T/C endpoint: mean survival time, dose: 100.0 mg/kg/injection, schedule: Q01DX009 (ip), vehicle: saline",137 % of control
same,T/C,"T/C endpoint: mean survival time, dose: 100.0 mg/kg/injection, schedule: Q03DX003 (ip), vehicle: saline",137 % of control
same,T/C,"T/C endpoint: mean survival time, dose: 120.0 mg/kg/injection, schedule: Q01DX005 (ip), vehicle: saline",141 % of control
same,T/C,"T/C endpoint: mean survival time, dose: 150.0 mg/kg/injection, schedule: Q01DX010 (ip), vehicle: saline",137 % of control
same,T/C,"T/C endpoint: mean survival time, dose: 200.0 mg/kg/injection, schedule: Q01DX005 (ip), vehicle: saline",141 % of control
same,T/C,"T/C endpoint: mean survival time, dose: 200.0 mg/kg/injection, schedule: Q01DX007 (ip), vehicle: Klucel (hydroxypropylcellulose) (HPC)",125 % of control
same,T/C,"T/C endpoint: mean survival time, dose: 200.0 mg/kg/injection, schedule: Q01DX009 (ip), vehicle: Klucel (hydroxypropylcellulose) (HPC)",126 % of control
same,T/C,"T/C endpoint: mean survival time, dose: 200.0 mg/kg/injection, schedule: Q01DX009 (ip), vehicle: saline",144 % of control
same,T/C,"T/C endpoint: mean survival time, dose: 225.0 mg/kg/injection, schedule: Q01DX010 (ip), vehicle: saline",130 % of control
same,T/C,"T/C endpoint: mean survival time, dose: 300.0 mg/kg/injection, schedule: Q01DX005 (ip), vehicle: saline, evaluated on day 35",130 % of control
same,T/C,"T/C endpoint: mean survival time, dose: 300.0 mg/kg/injection, schedule: Q01DX005 (ip), vehicle: saline, run until all animals had died",127 % of control
same,T/C,"T/C endpoint: mean survival time, dose: 300.0 mg/kg/injection, schedule: Q01DX009 (ip), vehicle: saline, evaluated on day 35",128 % of control
same,T/C,"T/C endpoint: mean survival time, dose: 300.0 mg/kg/injection, schedule: Q01DX009 (ip), vehicle: saline, run until all animals had died",129 % of control
same,T/C,"T/C endpoint: mean survival time, dose: 300.0 mg/kg/injection, schedule: Q01DX010 (ip), vehicle: saline",148 % of control
same,T/C,"T/C endpoint: mean survival time, dose: 300.0 mg/kg/injection, schedule: Q03HX024 (ip), vehicle: saline, evaluated on day 35",127 % of control
same,T/C,"T/C endpoint: mean survival time, dose: 300.0 mg/kg/injection, schedule: Q03HX024 (ip), vehicle: saline, run until all animals had died",125 % of control
same,T/C,"T/C endpoint: mean survival time, dose: 400.0 mg/kg/injection, schedule: Q01DX007 (ip), vehicle: Klucel (hydroxypropylcellulose) (HPC)",145 % of control
same,T/C,"T/C endpoint: mean survival time, dose: 400.0 mg/kg/injection, schedule: Q01DX009 (ip), vehicle: Klucel (hydroxypropylcellulose) (HPC)",147 % of control
same,T/C,"T/C endpoint: mean survival time, dose: 400.0 mg/kg/injection, schedule: Q01DX010 (ip), vehicle: saline",148 % of control
same,T/C,"T/C endpoint: mean survival time, dose: 600.0 mg/kg/injection, schedule: Q01DX005 (ip), vehicle: saline, evaluated on day 35",144 % of control
same,T/C,"T/C endpoint: mean survival time, dose: 600.0 mg/kg/injection, schedule: Q01DX005 (ip), vehicle: saline, run until all animals had died",132 % of control
same,T/C,"T/C endpoint: mean survival time, dose: 600.0 mg/kg/injection, schedule: Q01DX009 (ip), vehicle: saline, evaluated on day 35",136 % of control
same,T/C,"T/C endpoint: mean survival time, dose: 600.0 mg/kg/injection, schedule: Q01DX009 (ip), vehicle: saline, run until all animals had died",129 % of control [9 of 10 alive]
same,T/C,"T/C endpoint: mean survival time, dose: 600.0 mg/kg/injection, schedule: Q03HX024 (ip), vehicle: saline, evaluated on day 35",133 % of control [9 of 10 alive]
same,T/C,"T/C endpoint: mean survival time, dose: 600.0 mg/kg/injection, schedule: Q03HX024 (ip), vehicle: saline, run until all animals had died",132 % of control
same,T/C,"T/C endpoint: mean survival time, dose: 900.0 mg/kg/injection, schedule: Q01DX002 (sc), vehicle: saline",129 % of control
same,T/C,"T/C endpoint: mean survival time, dose: 1200.0 mg/kg/injection, schedule: Q01DX002 (sc), vehicle: saline",133 % of control
same,T/C,"T/C endpoint: mean survival time, dose: 1200.0 mg/kg/injection, schedule: Q01DX005 (ip), vehicle: saline",125 % of control
same,T/C,"T/C endpoint: mean survival time, dose: 1200.0 mg/kg/injection, schedule: Q03HX008 (ip), vehicle: saline",141 % of control
same,T/C,"T/C endpoint: mean survival time, dose: 1200.0 mg/kg/injection, schedule: Q04DX003 (ip), vehicle: saline",136 % of control
same,survivor count,"T/C endpoint: mean survival time, dose: 2400.0 mg/kg/injection, schedule: Q01DX005 (ip), vehicle: saline",5 of 10
same,T/C,"T/C endpoint: mean survival time, dose: 2400.0 mg/kg/injection, schedule: Q03HX008 (ip), vehicle: saline",147 % of control
same,T/C,"T/C endpoint: mean survival time, dose: 2400.0 mg/kg/injection, schedule: Q03HX024 (ip), vehicle: saline",145 % of control [9 of 10 alive]
same,T/C,"T/C endpoint: mean survival time, dose: 2400.0 mg/kg/injection, schedule: Q04DX003 (ip), vehicle: saline",126 % of control [9 of 10 alive]
same,T/C,"T/C endpoint: mean survival time, dose: 2400.0 mg/kg/injection, schedule: Q08DX002 (ip), vehicle: saline",135 % of control
same,T/C,"T/C endpoint: median survival time, dose: 25.0 mg/kg/injection, schedule: Q01DX005 (ip), vehicle: water",125 % of control
same,T/C,"T/C endpoint: median survival time, dose: 50.0 mg/kg/injection, schedule: Q01DX005 (ip), vehicle: water",130 % of control
same,T/C,"T/C endpoint: median survival time, dose: 80.0 mg/kg/injection, schedule: Q01DX009 (ip), vehicle: saline",127 and 142 % of control
same,T/C,"T/C endpoint: median survival time, dose: 100.0 mg/kg/injection, schedule: Q01DX005 (ip), vehicle: water",134 % of control
same,T/C,"T/C endpoint: median survival time, dose: 200.0 mg/kg/injection, schedule: Q01DX005 (ip), vehicle: water",143 % of control
same,T/C,"T/C endpoint: median survival time, dose: 320.0 mg/kg/injection, schedule: Q01DX009 (ip), vehicle: saline",127 % of control [5 of 6 alive]
same,T/C,"T/C endpoint: median survival time, dose: 800.0 mg/kg/injection, schedule: Q01DX005 (ip), vehicle: water",143 % of control [5 of 6 alive]
CCOC(=O)C(=O)C1CCc2c(ccc3ccccc23)C1=O (centres undefined),survivor count,"T/C endpoint: mean survival time, dose: 400.0 mg/kg/injection, schedule: Q01DX001 (ip), vehicle: Klucel (hydroxypropylcellulose) (HPC)",6 of 6
CC(=O)C[n+]1ccc(C)cc1Sc1ccccc1C,survivor count,"T/C endpoint: median survival time, dose: 200.0 mg/kg/injection, schedule: Q01DX009 (ip), vehicle: saline with Tween-80",4 of 6
CC1=Nc2cc(Cl)c(Cl)cc2N(C)/C1=C/C1=C(Cl)C(=O)c2cc3c(Cl)ccc(Cl)c3cc2C1=O,survivor count,"T/C endpoint: mean survival time, dose: 400.0 mg/kg/injection, schedule: Q04DX003 (ip), vehicle: saline with Tween-80",1 of 3
CCCCCCCCCCCCCCCCOc1ccc(OCCCCCCCCC)cc1,survivor count,"T/C endpoint: mean survival time, dose: 100.0 mg/kg/injection, schedule: Q01DX001 (ip), vehicle: saline with Tween-80",6 of 6
same,survivor count,[2],6 of 6
CCCNCC(=O)O[C@]1(CC)C(=O)OCc2c1cc1n(c2=O)Cc2cc3ccccc3nc2-1,T/C,"T/C endpoint: median survival time, dose: 7.5 mg/kg/injection, schedule: Q04DX002 (ip), vehicle: saline",138 % of control
same,T/C,"T/C endpoint: median survival time, dose: 15.0 mg/kg/injection, schedule: Q04DX002 (ip), vehicle: saline",127 and 137 % of control
O=C(O)c1ccc(C(=O)O)s1.[NH-]C1CCCCC1[NH-].[Pt+2],T/C,"T/C endpoint: mean survival time, dose: 10.0 mg/kg/injection, schedule: Q04DX003 (ip), vehicle: dextrose",146 % of control
O=S1(=O)CC2(OCCO2)C1Cl (centres undefined),survivor count,"T/C endpoint: mean survival time, dose: 400.0 mg/kg/injection, schedule: Q04DX002 (ip), vehicle: saline with Tween-80",0 of 3
CC1(C)N=C(N)N=C(N)N1c1ccc(OCCCCNC(=O)Nc2cccc(S(=O)(=O)F)c2)c(Cl)c1,survivor count,[2],0 of 6
same,survivor count,"T/C endpoint: mean survival time, dose: 400.0 mg/kg/injection, schedule: Q01DX001 (ip), vehicle: saline with Tween-80",0 of 6

# Reference: PubChem BioAssay AID256 (DTP/NCI, 2004)
